This experiment deals with Notch1 (endogenous, primary mouse CD8+ T-cells) (mouse (endogenous in primary CD8+ T-cells)) (UniProt Q01705). Description: affinity purification with mass spectrometry; Notch1 immunoprecipitated (MS-compatible magnetic IP kit) from lysates of primary mouse CD8+ T-cells stimulated with anti-CD3/CD28 and treated with vehicle, 1 µM ZM-241385, 1 µM CGS-21680 or both; trypsin digest, DIA on an Orbitrap Exploris 480.

Chains of the proteins cited; added tags and fusions are not shown. Residues count along the entry.
UniProt Q01705, residues 19-2531: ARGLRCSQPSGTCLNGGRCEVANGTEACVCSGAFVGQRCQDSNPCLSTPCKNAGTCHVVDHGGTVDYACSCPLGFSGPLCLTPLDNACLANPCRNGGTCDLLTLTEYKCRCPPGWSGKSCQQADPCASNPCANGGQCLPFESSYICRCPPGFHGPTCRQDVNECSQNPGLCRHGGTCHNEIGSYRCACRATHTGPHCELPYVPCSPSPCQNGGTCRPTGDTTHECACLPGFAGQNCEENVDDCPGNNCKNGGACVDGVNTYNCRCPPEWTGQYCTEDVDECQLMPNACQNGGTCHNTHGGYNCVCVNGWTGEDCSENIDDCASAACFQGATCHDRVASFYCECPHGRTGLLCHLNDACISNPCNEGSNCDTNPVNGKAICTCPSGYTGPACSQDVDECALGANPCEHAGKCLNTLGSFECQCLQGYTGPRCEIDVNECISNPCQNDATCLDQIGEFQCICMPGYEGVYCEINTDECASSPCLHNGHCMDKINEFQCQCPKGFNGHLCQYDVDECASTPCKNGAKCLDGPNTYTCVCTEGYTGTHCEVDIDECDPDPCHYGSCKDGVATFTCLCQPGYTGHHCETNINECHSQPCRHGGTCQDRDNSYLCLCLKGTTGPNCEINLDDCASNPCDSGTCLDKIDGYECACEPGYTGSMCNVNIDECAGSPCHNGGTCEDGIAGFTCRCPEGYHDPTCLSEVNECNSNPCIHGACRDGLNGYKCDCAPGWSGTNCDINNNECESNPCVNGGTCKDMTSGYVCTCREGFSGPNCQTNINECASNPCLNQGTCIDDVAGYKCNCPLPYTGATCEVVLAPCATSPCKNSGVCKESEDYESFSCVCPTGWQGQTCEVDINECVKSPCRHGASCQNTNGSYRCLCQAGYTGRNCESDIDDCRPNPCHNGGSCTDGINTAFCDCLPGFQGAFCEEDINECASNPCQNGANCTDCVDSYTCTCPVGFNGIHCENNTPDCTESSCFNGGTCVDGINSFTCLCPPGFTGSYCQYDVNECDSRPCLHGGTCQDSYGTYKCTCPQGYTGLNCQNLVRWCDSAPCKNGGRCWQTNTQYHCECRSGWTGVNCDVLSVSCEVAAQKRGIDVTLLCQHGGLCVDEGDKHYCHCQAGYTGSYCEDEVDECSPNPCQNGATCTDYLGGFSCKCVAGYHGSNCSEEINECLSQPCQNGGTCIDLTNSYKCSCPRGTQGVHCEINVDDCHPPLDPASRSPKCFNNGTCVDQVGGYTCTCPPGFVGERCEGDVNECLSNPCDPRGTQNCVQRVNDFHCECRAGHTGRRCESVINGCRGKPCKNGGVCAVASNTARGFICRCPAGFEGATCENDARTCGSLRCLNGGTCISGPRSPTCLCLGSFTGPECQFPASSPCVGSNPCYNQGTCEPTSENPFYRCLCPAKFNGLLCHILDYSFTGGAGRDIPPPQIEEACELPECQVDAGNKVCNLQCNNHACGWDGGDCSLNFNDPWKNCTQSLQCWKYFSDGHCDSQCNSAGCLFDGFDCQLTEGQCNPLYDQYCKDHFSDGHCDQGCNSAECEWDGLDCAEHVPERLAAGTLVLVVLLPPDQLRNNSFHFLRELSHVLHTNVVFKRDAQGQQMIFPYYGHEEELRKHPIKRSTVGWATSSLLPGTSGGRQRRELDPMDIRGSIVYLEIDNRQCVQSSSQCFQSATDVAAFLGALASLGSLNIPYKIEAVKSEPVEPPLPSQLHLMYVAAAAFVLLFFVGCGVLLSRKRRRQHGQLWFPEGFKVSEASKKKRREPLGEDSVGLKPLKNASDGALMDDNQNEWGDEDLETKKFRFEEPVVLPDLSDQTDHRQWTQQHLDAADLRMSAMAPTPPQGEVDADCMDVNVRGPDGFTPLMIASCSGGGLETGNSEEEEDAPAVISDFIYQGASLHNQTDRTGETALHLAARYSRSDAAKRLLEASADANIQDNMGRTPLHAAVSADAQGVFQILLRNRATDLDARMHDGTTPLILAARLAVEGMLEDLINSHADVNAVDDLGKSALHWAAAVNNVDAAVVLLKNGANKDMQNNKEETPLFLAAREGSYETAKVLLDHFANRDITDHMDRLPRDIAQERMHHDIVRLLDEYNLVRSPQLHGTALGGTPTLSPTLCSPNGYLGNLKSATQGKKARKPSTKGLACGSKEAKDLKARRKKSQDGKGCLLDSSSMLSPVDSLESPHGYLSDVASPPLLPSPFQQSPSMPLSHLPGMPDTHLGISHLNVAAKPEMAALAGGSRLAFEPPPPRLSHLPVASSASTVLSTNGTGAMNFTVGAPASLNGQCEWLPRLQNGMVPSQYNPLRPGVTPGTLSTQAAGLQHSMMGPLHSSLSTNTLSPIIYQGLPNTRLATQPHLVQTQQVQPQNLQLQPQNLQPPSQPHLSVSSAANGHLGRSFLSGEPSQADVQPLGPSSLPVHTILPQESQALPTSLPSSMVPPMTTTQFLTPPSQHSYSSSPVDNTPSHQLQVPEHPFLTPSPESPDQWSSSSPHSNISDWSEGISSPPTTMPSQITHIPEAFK
UniProt Q3TTA7: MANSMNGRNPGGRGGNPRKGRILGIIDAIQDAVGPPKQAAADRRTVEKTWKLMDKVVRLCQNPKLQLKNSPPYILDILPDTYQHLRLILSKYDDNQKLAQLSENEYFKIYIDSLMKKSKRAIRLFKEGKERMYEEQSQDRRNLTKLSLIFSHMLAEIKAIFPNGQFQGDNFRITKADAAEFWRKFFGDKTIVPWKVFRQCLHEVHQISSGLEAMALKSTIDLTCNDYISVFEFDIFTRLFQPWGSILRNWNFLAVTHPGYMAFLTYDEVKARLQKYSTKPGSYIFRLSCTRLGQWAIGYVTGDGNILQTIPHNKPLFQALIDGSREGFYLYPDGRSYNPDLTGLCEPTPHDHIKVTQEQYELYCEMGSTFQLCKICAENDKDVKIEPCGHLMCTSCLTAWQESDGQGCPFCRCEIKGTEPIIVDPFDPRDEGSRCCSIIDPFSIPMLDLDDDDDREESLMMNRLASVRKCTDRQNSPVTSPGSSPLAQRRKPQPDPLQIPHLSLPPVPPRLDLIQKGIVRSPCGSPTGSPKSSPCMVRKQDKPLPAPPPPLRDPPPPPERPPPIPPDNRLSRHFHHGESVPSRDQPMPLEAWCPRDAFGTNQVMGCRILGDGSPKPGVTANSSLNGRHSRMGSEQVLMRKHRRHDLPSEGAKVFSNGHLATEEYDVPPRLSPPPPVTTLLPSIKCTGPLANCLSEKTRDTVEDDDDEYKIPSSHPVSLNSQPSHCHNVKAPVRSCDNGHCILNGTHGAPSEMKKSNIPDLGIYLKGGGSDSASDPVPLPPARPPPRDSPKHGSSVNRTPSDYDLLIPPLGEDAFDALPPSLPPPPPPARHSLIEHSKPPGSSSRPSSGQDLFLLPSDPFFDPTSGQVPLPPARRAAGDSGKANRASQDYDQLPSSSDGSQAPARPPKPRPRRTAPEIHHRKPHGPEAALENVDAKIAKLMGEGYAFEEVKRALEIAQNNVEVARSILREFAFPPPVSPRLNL
UniProt Q8BGG7: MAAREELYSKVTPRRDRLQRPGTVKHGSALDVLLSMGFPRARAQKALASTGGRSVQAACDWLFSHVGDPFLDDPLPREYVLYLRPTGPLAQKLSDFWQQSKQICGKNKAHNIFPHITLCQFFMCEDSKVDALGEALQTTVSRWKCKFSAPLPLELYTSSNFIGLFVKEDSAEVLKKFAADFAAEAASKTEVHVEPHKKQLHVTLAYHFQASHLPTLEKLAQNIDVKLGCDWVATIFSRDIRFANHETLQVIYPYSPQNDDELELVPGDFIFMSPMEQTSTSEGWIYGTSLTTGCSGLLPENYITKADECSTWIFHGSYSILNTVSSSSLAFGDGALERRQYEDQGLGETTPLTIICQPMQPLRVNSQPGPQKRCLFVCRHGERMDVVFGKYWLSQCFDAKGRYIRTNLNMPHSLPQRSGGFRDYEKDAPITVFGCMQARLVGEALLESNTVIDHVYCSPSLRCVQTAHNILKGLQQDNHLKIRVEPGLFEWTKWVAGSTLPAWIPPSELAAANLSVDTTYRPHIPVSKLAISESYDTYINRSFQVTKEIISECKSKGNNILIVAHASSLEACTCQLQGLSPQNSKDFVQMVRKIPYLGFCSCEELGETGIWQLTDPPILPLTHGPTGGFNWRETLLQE

The values below come from PMC9459147.

No constants are given. Whether binding was seen depends on the method and setting. In cells and extracts the contact can be indirect. Here binding means that the protein was enriched with, or labelled near, the bait; the list need not be complete.

With “Casitas B-lineage lymphoma b (Cbl-b), endogenous (from UniProt Q3TTA7 1-982) (enzyme)”, the binding entry is listed as “binds”.

On to “Suppressor of T-cell receptor signaling 1 (STS-1), endogenous (from UniProt Q8BGG7 1-638) (enzyme)”, for which the binding entry was “binds”.
